At least one compound was matched to its structure with a doubt left.
What was measured:
ErbB2 [1] = details: ErbB2-overexpressing cells, literature (28, 29); cited from earlier work
ErbB2 [2] = test: GA-mediated ErbB2 degradation in ErbB2-transfected 293T cells (Western blot); type: cell-based; details: GA for 16 h
ErbB2 [3] = test: GA-induced degradation of endogenous ErbB2 in SKBR3 breast cancer cells (Western blot); type: cell-based; details: GA for 2 h, control shRNA targeting GFP
HIF1-α = test: GA-mediated degradation of HIF-1α-HA in 293T cells (Western blot); type: cell-based; details: control siRNA, 3 μM GA for 16 h

For `COC1=C2C[C@@H](C)C[C@H](OC)[C@H](O)[C@@H](C)/C=C(\C)[C@H](OC(N)=O)[C@@H](OC)/C=C\C=C(/C)C(=O)NC(=CC1=O)C2=O` [GA, geldanamycin], the “Proteasomal degradation of ErbB2” value (ErbB2 [1]) is listed as “results in rapid proteasomal degradation of ErbB2”, the ErbB2 degradation (ErbB2 [2]; 293T cells with CHIP siRNA knockdown) is listed as “still resulted in ErbB2 degradation” and the ErbB2 degradation (ErbB2 [2]; 293T cells, control siRNA-treated) is listed as “induced efficient degradation of ErbB2”. For the same molecule, the ErbB2 degradation (ErbB2 [2]; ErbB2-transfected 293T cells, absence of Cul5ΔNedd8) was “resulted in ErbB2 degradation”, the “Degradation of endogenous ErbB2” value (ErbB2 [3]) was “induced degradation of endogenous ErbB2” and the HIF1-α degradation (HIF1-α) was “induced HIF1-α degradation”.

— patent publication US20130131153A1, “CULLIN 5 AS A REGULATOR OF HSP90 CLIENTS: A NEW TARGET FOR DRUG DEVELOPMENT” (THE JOHNS HOPKINS UNIVERSITY, priority 2009, published 2013)
